Data from the supplement of paper PMC10849652.
Some of the results follow.

The chains behind the UniProt entries cited, without tags or fusion partners. Where a name states a change or a piece, a line headed by the entry shows the natural chain unless it says otherwise.
UniProt Q5VWQ0: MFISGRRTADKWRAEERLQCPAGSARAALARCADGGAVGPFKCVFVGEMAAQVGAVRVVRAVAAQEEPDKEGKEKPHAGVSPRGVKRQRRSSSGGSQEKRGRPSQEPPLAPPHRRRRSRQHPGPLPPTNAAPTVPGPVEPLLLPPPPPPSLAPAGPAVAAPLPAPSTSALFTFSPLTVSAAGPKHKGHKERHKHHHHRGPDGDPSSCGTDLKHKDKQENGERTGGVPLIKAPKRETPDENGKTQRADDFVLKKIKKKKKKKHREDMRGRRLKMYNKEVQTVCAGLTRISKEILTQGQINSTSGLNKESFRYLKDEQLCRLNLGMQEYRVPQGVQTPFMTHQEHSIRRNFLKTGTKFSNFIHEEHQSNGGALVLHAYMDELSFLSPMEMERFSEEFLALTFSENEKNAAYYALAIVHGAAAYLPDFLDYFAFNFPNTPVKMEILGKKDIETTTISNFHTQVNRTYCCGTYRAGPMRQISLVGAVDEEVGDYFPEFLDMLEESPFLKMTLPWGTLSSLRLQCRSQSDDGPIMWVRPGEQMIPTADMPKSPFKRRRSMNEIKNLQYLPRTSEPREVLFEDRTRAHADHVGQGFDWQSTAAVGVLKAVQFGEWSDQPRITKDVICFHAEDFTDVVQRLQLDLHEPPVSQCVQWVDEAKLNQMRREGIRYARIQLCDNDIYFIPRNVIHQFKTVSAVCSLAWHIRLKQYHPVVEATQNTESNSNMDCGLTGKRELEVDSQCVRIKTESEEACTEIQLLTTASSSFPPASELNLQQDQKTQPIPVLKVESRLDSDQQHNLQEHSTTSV
UniProt Q96NL6: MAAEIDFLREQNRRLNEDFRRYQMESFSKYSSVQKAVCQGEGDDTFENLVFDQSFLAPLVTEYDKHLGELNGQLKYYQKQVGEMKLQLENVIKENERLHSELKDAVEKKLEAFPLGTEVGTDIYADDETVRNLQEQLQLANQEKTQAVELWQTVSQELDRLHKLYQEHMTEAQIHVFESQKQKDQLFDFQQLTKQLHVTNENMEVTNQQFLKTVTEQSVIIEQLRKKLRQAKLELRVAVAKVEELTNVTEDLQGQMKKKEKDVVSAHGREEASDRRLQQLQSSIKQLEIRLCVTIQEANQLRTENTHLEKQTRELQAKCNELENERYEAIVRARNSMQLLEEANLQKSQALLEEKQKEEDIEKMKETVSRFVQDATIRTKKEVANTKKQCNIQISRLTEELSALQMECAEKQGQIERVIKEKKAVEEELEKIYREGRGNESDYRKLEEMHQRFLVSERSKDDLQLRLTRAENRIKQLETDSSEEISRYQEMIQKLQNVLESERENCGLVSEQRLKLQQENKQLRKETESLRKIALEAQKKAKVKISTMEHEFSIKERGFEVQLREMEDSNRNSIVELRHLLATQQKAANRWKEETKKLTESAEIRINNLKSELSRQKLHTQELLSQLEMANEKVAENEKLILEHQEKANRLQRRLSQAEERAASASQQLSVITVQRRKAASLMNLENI
UniProt Q9NSI8: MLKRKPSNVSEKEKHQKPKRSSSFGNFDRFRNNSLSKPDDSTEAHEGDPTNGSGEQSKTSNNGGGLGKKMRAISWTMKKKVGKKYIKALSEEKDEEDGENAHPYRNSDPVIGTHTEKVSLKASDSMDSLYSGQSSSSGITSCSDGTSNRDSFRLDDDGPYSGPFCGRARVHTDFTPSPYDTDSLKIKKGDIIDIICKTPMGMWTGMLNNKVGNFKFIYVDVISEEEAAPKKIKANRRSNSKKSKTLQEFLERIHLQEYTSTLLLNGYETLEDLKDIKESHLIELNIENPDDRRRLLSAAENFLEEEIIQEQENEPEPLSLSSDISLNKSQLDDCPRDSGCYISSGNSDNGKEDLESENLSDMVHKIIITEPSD
UniProt P28702: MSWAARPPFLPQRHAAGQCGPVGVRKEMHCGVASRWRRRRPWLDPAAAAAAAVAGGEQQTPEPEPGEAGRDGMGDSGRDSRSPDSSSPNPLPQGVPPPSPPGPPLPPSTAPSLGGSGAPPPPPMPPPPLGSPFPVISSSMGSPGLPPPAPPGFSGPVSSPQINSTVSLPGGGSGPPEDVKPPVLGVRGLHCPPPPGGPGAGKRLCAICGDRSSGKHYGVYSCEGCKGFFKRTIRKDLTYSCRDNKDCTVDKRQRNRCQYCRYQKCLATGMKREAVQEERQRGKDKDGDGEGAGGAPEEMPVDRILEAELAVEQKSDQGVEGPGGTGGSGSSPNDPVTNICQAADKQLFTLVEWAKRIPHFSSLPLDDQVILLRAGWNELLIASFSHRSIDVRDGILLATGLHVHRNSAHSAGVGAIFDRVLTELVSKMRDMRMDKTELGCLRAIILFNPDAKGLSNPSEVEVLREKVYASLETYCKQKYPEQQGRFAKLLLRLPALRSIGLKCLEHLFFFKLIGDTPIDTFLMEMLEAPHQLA
UniProt Q9Y512: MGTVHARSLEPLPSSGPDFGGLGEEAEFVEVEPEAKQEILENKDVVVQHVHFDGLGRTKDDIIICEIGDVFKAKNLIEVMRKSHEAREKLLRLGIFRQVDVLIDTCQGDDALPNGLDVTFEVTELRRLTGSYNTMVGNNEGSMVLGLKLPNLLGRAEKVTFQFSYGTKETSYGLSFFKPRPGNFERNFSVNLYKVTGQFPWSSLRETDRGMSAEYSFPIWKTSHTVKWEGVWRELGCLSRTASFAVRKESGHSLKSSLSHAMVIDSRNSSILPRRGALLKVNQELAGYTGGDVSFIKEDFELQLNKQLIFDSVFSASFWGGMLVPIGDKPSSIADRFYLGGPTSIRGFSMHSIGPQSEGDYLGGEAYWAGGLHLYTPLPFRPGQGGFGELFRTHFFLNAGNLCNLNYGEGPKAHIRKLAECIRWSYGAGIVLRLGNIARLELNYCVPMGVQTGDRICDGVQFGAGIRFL
UniProt Q9Y3Z3: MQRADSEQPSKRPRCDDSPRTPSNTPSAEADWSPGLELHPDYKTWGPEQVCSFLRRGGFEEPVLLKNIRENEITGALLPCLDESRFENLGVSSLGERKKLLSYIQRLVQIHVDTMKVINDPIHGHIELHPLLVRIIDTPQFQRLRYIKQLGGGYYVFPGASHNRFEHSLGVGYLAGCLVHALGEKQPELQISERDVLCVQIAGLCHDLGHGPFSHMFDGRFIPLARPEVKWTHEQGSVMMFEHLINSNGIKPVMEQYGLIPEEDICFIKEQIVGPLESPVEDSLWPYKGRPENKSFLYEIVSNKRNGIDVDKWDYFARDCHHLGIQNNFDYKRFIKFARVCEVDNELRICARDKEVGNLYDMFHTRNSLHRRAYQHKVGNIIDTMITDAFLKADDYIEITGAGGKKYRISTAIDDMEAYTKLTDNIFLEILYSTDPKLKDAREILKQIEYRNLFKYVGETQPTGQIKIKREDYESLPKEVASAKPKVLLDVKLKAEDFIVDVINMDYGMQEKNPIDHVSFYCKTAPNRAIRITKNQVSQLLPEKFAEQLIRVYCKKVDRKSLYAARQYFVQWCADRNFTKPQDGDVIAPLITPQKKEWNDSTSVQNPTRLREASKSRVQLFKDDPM
UniProt Q96EU6: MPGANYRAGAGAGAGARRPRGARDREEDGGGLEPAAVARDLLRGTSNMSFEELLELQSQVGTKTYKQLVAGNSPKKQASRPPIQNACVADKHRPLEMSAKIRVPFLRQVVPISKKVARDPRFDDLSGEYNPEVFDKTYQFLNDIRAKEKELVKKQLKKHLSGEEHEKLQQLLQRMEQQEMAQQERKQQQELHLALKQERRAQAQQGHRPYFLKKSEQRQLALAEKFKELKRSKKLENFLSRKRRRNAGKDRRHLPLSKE
UniProt Q15437: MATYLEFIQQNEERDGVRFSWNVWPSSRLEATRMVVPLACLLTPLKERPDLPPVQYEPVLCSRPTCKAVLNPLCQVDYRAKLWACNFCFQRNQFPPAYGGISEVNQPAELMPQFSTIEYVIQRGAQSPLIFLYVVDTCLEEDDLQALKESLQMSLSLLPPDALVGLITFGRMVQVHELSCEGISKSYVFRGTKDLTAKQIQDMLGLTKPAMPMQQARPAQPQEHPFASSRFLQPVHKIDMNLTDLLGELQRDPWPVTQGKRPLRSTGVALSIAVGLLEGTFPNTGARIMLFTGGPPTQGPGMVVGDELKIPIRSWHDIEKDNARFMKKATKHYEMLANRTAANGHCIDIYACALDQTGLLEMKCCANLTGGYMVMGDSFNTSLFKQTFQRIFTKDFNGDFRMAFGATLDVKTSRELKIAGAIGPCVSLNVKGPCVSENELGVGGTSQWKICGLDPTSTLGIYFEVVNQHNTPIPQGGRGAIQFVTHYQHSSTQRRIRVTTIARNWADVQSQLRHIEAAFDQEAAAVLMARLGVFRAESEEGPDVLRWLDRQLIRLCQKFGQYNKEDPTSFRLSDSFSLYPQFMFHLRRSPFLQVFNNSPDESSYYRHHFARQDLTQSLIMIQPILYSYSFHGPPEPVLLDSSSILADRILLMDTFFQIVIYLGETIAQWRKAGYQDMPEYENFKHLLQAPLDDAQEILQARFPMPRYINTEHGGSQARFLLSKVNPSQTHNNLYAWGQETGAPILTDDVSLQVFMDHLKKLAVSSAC
UniProt Q9Y224: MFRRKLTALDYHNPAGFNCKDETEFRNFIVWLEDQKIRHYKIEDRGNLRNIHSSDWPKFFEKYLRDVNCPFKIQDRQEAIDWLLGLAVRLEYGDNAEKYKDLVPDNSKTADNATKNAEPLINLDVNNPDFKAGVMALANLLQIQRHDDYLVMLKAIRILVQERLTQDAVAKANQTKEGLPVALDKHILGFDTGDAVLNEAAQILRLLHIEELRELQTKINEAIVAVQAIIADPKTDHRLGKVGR
UniProt Q9Y6U3: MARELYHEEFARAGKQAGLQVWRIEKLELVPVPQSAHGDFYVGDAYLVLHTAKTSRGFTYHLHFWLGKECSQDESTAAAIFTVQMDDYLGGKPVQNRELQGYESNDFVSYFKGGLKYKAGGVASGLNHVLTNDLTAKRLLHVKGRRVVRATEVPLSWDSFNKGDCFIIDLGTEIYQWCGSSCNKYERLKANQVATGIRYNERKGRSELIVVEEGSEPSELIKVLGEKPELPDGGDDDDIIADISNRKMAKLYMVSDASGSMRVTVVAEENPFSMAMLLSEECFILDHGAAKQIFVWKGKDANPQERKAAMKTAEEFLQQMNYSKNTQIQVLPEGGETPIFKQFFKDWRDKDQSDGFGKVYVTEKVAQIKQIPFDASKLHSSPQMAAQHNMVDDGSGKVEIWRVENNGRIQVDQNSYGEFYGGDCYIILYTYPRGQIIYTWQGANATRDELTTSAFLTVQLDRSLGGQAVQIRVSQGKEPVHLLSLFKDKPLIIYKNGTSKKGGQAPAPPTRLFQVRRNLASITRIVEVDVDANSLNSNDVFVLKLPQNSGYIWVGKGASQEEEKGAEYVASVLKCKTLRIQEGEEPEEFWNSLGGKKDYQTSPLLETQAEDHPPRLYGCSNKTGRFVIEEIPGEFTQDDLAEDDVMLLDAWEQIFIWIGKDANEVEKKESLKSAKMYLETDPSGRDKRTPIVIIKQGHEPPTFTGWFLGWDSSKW
UniProt P21912: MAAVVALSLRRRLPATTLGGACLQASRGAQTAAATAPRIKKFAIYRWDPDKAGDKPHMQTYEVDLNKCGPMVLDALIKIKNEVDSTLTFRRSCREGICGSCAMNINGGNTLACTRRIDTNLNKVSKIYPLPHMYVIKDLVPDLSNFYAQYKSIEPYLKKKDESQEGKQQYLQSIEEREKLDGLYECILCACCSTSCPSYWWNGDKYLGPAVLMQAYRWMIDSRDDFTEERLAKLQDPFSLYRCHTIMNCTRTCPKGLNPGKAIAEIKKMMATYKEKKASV
UniProt O75556: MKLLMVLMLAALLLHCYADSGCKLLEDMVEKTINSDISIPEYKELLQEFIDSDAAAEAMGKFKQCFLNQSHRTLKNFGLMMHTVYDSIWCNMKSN
UniProt P31040: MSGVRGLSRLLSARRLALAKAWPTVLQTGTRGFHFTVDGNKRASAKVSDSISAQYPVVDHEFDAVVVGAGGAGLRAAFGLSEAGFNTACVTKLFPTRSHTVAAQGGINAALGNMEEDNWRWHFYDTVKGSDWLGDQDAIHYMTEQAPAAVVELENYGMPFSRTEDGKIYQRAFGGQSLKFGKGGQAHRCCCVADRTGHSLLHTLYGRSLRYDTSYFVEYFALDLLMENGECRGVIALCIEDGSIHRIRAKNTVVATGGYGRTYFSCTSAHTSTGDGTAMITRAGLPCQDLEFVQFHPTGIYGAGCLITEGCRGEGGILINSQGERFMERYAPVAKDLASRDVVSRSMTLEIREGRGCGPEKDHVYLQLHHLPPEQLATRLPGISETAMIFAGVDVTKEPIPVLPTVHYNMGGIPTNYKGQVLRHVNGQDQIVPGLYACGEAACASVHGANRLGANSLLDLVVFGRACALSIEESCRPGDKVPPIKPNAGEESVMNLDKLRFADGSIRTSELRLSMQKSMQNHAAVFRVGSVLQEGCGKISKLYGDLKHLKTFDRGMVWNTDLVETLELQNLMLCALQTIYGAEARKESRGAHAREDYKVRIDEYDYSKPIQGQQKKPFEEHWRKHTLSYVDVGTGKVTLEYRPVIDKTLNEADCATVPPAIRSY

Key:
Assay in all cases: log2 fold change, soluble protein after heating vs DMSO (PISA); higher = thermal stabilisation; K562 cells, 10 uM, 30 min; active = over 0.2 and 3.5 SD of the protein, either way, in both replicates (recomputed)
[1] = compound: C1=CC=C(C=C1)[C@H](COC2=CC3=C(C=C2)NC(=O)N3)NC(=O)C4=CC=CN(C4=O)CC5=CC(=C(C=C5)F)F
Procedure, shortened: (§1)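 K562 cells at 2×10^6 cells/mL were exposed to 10 μM compound for 30 min, then aliquots were heated for 3 min across 48°C-58°C, pooled, and extracted in PBS containing 0.5% NP-40 at 4°C. The supernatant after 21,000xg for 90 min was taken as soluble protein and measured by TMTpro 16plex LC-MS/MS with channel sums equalised. Thermal stability is reported relative to control samples, with values from duplicates. Fold changes are given on a log2 scale.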

[2] = compound: CC1=C(SC2=C1C(=N[C@H](C3=NN=C(N32)C)CC(=O)N)C4=CC=C(C=C4)Cl)C
Procedure, shortened: as §1

[3] = compound: CC1=C2C(=CC=C1)N=C(N(C2=O)C3=CC=CC=C3C)CN4C=NC5=C(N=CN=C54)N
Procedure, shortened: as §1

[4] = compound: Cc1sc2c(c1C)C(c1ccc(Cl)cc1)=N[C@@H](CC(=O)OC(C)(C)C)c1nnc(C)n1-2
Procedure, shortened: as §1

[5] = compound: c1ccc([C@@H]2C[C@H]2NC2CCNCC2)cc1
Procedure, shortened: as §1

Measured: log2 fold change

SDF2L1 (UniProt Q9HCN8)
inactive: [1] 0.066 | [2] -0.004 | [3] -0.016 | [4] 0.01 | [5] -0.047

RSPRY1 (UniProt Q96DX4)
inactive: [1] -0.009 | [2] 0.024 | [3] 0.012 | [4] -0.026 | [5] 0.029

RTN3 (UniProt O95197)
inactive: [1] -0.001 | [2] 0.074 | [3] 0.044 | [4] -0.039 | [5] -0.011

RTCB (UniProt Q9Y3I0)
inactive: [1] 0.01 | [2] -0.016 | [3] -0.055 | [4] 0.026 | [5] -0.009

RSBN1 (UniProt Q5VWQ0)
inactive: [1] 0.015 | [2] -0.285 | [3] -0.05 | [4] 0.181 | [5] 0.087

SCLT1 (UniProt Q96NL6)
inactive: [1] 0.078 | [2] 0.215 | [3] 0.222 | [4] 0.001 | [5] -0.039

SARG (UniProt Q9BW04)
inactive: [1] 0.023 | [2] 0.007 | [3] 0.02 | [4] -0.047 | [5] 0.087

SAMSN1 isoform 3 (UniProt Q9NSI8)
inactive: [1] -0.028 | [2] 0.014 | [3] 0.025 | [4] -0.01 | [5] -0.01

SASS6 (UniProt Q6UVJ0)
inactive: [1] -0.006 | [2] 0.013 | [3] 0.021 | [4] -0.072 | [5] -0.024

RXRB isoform 3 (UniProt P28702)
inactive: [1] -0.025

SAMM50 (UniProt Q9Y512)
inactive: [1] 0.023 | [2] -0.002 | [3] -0.014 | [4] 0.013 | [5] 0.024

SAMHD1 (UniProt Q9Y3Z3)
inactive: [1] -0.007 | [2] 0.028 | [3] -0.003 | [4] -0.011 | [5] 0.042

S100A1 (UniProt P23297)
inactive: [1] -0.04

RRP36 (UniProt Q96EU6)
inactive: [1] 0.119 | [2] -0.266 | [3] -0.228 | [4] 0.245 | [5] 0.019

SEC23B (UniProt Q15437)
inactive: [1] -0.005 | [2] 0.077 | [3] 0.058 | [4] -0.018 | [5] -0.058

SEC13 isoform 3 (UniProt P55735)
inactive: [1] -0.094 | [2] -0.02 | [3] 0.033 | [4] 0.043 | [5] 0.01

RTRAF (UniProt Q9Y224)
inactive: [1] 0.001 | [2] -0.027 | [3] -0.027 | [4] 0.078 | [5] -0.005

SCIN (UniProt Q9Y6U3)
inactive: [1] -0.013 | [2] -0.031 | [3] 0.077 | [4] -0.026 | [5] -0.008

SDHB (UniProt P21912)
inactive: [1] 0.008 | [2] -0.019 | [3] -0.05 | [4] 0.033 | [5] 0.03

SCGB2A1 (UniProt O75556)
inactive: [1] -0.306

2 records drawn at random from those above, as already listed:
RTRAF (UniProt Q9Y224)
inactive: [1] 0.001 | [2] -0.027 | [3] -0.027 | [4] 0.078 | [5] -0.005

SCGB2A1 (UniProt O75556)
inactive: [1] -0.306

Additional entries follow.

SDHA (UniProt P31040)
inactive: [1] 0.018 | [2] 0.01 | [3] -0.004 | [4] 0.005 | [5] 0.01

RRP12 (UniProt Q5JTH9)
inactive: [1] -0.015 | [2] -0.068 | [3] 0.045 | [4] 0.001 | [5] 0

SCAMP3 (UniProt O14828)
inactive: [1] -0.005 | [2] -0.064 | [3] -0.038 | [4] 0.007 | [5] 0.067
